Test results taken from PMC12430429, “Synthesis, Structure, DNA/BSA Binding, DNA Cleaving, Cytotoxic and SOD Mimetic Activities of Copper(II) Complexes Derived from Methoxybenzylamine Schiff Base Ligands” (Molecules, 2025).

Tested on: S. cerevisiae cells
Test: Resazurin cytotoxicity assay (mitochondrial activity)
Format: cell-based
Conditions: average of 3 measurements
Description: The resazurin-based model that monitors mitochondrial activity is widely used as an indicator of cell viability, proliferation and cytotoxicity. This method is based on the reduction of resazurin to resorufin by mitochondrial enzymes, as carriers of diaphorase activities, like NADPH-dehydrogenase, which are responsible for the transference of electrons from NADPH^+, H^+ to resazurin. The reduction of resazurin correlates with the number of live bacterial or mammalian cells or fungi. Furthermore, S. cerevisiae is an established model system for eukaryotic organisms. They have conserved cellular processes with high homology to those of humans. They proliferate rapidly and are even used as a model to study the effects of anticancer agents. The use of S. cerevisiae in resazurin redox testing is a good alternative to conventional cell viability testing techniques.
The assay is based on the ability of living cells to reduce blue resazurin (7-hydroxy-3H-phenoxazin-3-one 10-oxide) to pink resorufin (7-hydroxy-3H-phenoxazin-3-one) which is measurable by the UV–Vis spectrophotometric or fluorometric method (AlamarBlue^TM). Living cells have active N-methylphenazinium methosulfate that catalyzes the redox reaction in mitochondria of NADH and blue resazurin to produce pink resorufin (Scheme 2). This test is used as an oxidation–reduction indicator in cell viability assays for yeasts and mammalian cells. Reduction of the dye by viable cells decreases the amount of the oxidized form (blue) and, at the same time, increases the amount of its fluorescent intermediate (pink), indicating the degree of cytotoxicity caused by the test material.
S. cerevisiae cells (CCY 21-4-64; Libáň, Czech Republic) were cultured at 28 °C/24h on Saburaud’s dextrose agar with chloramphenicol (Merck, Boston, MA, USA). Subsequently, after 24 h, S. cerevisiae cells were inoculated into sterile liquid YPD medium (Sigma–Aldrich, St. Louis, MO, USA) and cultivation continued at 28 °C/24 h. In the exponential growth phase, cells were centrifuged (8.000 g/3 min), washed twice with sterile physiological solution (0.9% NaCl) and pipetted at a concentration of 1 × 10^9 cells/mL in sterile microtubes (modified procedure from Bitacura, 2018). Sterile physiological solution and copper complexes at concentrations of 1 × 10^−3 M, 3 × 10^−3 M and 5 × 10^−3 M were added to the centrifuged biomass to a total volume of 1 mL and individual samples were cultured in an incubator at 28 °C/3 h. After 3 h, 0.1 mL of ResazurinOX (in vitro toxicology assay kit based on resazurin, Sigma, USA) was added to each sample and the samples were allowed to culture for 2 h. After incubation, the biomass in the samples was separated from the supernatant by centrifugation (8000 g/5 min). The separated solution was diluted in a ratio of 1:1 with physiological solution and subjected to the measurement of UV spectra by the spectrophotometric method according to the recommended protocol of the kit manufacturer (Sigma, USA) on a GENESYS 10S UV–Vis spectrophotometer (Thermo Scientific, USA) in the range of 500–800 nm, using a 1 cm long cuvette.
Cells’ innate metabolic was measured by using an established formula for the reduction percentage. The reduction percentage was calculated using the following formula:(7) Red(%)=ƐOX_600 nm×A570 nm_sample−ƐOX_570 nm×A600 nm_sample/ƐRED_570 nm×A600 nm_C−−ƐRED_600 nm×A570 nm_C−×100

In the case of `COc1ccc(CN=Cc2ccccc2[O-])cc1.COc1ccc(CN=Cc2ccccc2[O-])cc1.[Cl-].[Cl-].[Cu+2].[Cu+2]` [Complex 4c, [Cu2 (Sal-4-MeOBn)2 Cl2]], the “Absorbance 570 nm” value (complex 1 mM) is reported as 0.60, the “Absorbance 600 nm” value (complex 1 mM) is reported as 0.77 and the “Absorbance 570 nm” value (complex 3 mM) is reported as 0.40. The “Absorbance 600 nm” value (complex 3 mM) was 0.44, the “Absorbance 570 nm” value (complex 5 mM) was 0.33 and the “Absorbance 600 nm” value (complex 5 mM) was 0.27.
`COc1ccccc1CN=Cc1ccccc1[O-].COc1ccccc1CN=Cc1ccccc1[O-].[Cl-].[Cl-].[Cu+2].[Cu+2]` [Complex 4a, [Cu2 (Sal-2-MeOBn)2 Cl2]] was tested, and the “Absorbance 570 nm” value (complex 1 mM) was 0.55, the “Absorbance 600 nm” value (complex 1 mM) was 0.25 and the “Absorbance 570 nm” value (complex 3 mM) was 0.44. For the same compound, the “Absorbance 600 nm” value (complex 3 mM) was 0.5, the “Absorbance 570 nm” value (complex 5 mM) was 0.32 and the “Absorbance 600 nm” value (complex 5 mM) was 0.26.
With `COc1cccc(CN=Cc2ccccc2[O][Cu][O]c2ccccc2C=NCc2cccc(OC)c2)c1` [Complex 4b, [Cu (Sal-3-MeOBn)2]] the “Absorbance 570 nm” value (complex 1 mM) was 0.75, the “Absorbance 600 nm” value (complex 1 mM) was 0.69 and the “Absorbance 570 nm” value (complex 3 mM) was 0.69. The “Absorbance 600 nm” value (complex 3 mM) was 0.88, the “Absorbance 570 nm” value (complex 5 mM) was 0.63 and the “Absorbance 600 nm” value (complex 5 mM) was 0.90.
